Experimental data from ChEMBL document CHEMBL3880399 (2004).

Protein sequences, listed by entry. Tags and fused reporters are not part of them.
UniProt P28223, whole entry: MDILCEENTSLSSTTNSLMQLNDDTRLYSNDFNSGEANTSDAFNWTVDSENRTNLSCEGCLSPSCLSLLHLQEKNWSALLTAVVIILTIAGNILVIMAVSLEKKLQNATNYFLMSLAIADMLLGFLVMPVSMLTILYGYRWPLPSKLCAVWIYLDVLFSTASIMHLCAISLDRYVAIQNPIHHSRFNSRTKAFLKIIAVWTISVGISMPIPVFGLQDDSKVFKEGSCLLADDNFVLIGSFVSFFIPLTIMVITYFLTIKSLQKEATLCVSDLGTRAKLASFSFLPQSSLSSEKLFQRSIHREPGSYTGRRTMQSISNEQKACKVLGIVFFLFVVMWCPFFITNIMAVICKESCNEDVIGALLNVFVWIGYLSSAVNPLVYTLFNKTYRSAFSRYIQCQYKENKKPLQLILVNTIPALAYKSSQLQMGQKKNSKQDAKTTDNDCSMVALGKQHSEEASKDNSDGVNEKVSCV

Target: 5-hydroxytryptamine receptor 2A (Homo sapiens, UniProt P28223)
Format: cell-based, NIH/3T3

## CCCN[C@H]1CCc2nc(N)sc2C1 [PRAMIPEXOLE]
  EC50: 1170 nM
